Measured values: doi:10.1101/2020.06.12.148171
These are yes or no findings as the source states them, for the method shown. Binding seen in cells or lysates may run through a third protein. A result given as binding can be weak or reduced; the word gives no strength.

Amino acid sequences for entries named in this document (tags omitted). A change or cut given only in a name is not applied to a line headed by its entry.
UniProt P83887: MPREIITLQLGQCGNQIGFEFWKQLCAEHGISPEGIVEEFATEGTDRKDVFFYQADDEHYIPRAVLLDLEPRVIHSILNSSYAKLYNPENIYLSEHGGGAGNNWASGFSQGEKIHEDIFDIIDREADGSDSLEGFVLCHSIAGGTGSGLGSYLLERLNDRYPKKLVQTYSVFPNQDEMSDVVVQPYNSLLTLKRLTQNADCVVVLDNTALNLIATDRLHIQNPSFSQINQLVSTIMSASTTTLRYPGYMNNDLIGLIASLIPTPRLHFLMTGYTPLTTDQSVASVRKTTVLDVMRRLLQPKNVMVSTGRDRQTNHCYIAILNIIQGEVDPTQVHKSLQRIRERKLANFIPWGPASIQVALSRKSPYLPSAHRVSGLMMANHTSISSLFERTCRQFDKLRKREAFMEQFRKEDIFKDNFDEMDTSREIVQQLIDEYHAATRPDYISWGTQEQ
UniProt P33215: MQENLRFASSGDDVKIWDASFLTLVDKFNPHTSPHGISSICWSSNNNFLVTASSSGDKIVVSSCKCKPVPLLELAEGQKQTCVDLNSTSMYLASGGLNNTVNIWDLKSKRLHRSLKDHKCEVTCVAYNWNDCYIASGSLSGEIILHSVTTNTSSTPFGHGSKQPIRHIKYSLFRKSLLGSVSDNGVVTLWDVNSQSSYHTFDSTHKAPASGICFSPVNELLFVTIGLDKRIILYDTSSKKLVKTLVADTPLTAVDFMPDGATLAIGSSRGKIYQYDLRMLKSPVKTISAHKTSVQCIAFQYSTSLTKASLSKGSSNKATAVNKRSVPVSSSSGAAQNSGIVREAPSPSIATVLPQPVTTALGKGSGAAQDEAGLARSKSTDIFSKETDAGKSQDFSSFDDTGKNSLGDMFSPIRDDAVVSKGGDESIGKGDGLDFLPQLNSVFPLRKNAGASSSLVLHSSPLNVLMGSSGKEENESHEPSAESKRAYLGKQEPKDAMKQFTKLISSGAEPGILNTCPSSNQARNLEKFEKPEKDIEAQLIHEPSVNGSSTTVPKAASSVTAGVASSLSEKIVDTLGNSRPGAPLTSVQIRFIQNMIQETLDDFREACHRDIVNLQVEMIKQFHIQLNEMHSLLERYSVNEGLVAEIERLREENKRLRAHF

Target: γ-tubulin (mouse (endogenous in MEFs)) (UniProt P83887)
Experiment: proximity ligation

binding: binds
Substance: Nedd1 (from UniProt P33215 1-660)
